# Results are given in words; binding and its absence hold for the method and conditions named. For part of these data: In cells and extracts the contact can be indirect. For part of these data: Binding can be weak; no strength is given. For part of these data: Tags and fused reporters may be left off the sequences shown.
# Assays:
# LIF-receptor = assay: Biacore, protein injected over the immobilised peptide
# Endogenous 14-3-3 = assay: co-immunoprecipitation from 293T cell lysates, immunoblot
binding (LIF-receptor),binding (Endogenous 14-3-3),Binder
no binding,–,"PAELEVECATQLRRFGDKLNFRQKLL [Noxa (18-43) BH3 peptide, human]"
–,binds,HA-tagged full-length mouse Bad (protein) YPYDVPDYAMGTPKQPSLAPAHALGLRKSDPGIRSLGSDAGGRRWRPAAQSMFQIPEFEPSEQEDASATDRGLGPSLTEDQPGPYLAPGLLGSNIHQQGRAATNSHHGGAGAMETRSRHSSYPAGTEEDEGMEEELSPFRGRSRSAPPNLWAAQRYGRELRRMSDEFEGSFKGLPRPKSAGTATQMRQSAGWTRIIQSWWDRNLGKGGSTPSQ
no binding,–,"NLWAAQRYGRELRRMSDEFVDSFKKG [Bad (103-128) BH3 peptide, human]"

# — US20080027145A1, “Therapeutic Molecules and Methods for Generating and/or Selecting Same” (priority 2004, published 2008)
